In PMC11616081, “Structural basis of archaeal FttA-dependent transcription termination” (Nature, 2024):
Results are given in words; binding and its absence hold for the method and conditions named. Binding can be weak; no strength is given.

Legend:
Experiment in all cases: cryo-EM structure; 4 μM Tko RNAP, 8 μM Spt4, 8 μM Spt5 and 5 μM nucleic acid scaffold (TEC[44] or TEC[52]) in 20 mM HEPES-NaOH pH 7.5, 30 mM KCl, 10 mM magnesium acetate, 1 mM dithiothreitol, 10 min at 22 °C; then FttA(H255A/H591A) added, 10 min at 22 °C and 5 min at 42 °C; CHAPSO added before freezing; single-particle reconstruction at 2.5 Å (TEC[44]) and 2.2 Å (TEC[52]); both purified
[1] = molecular target: Tko RNAP (Thermococcus kodakarensis)
[2] = molecular target: Tko RNAP stalk subunit RpoE (Thermococcus kodakarensis)
[3] = molecular target: Tko RNAP stalk subunit RpoF (Thermococcus kodakarensis)
[4] = molecular target: Tko RNAP subunit RpoA′ (Thermococcus kodakarensis)
[5] = molecular target: Tko RNAP subunit RpoB (Thermococcus kodakarensis)

Measured: binding

B1: Tko FttA(H255A/H591A) (enzyme, Thermococcus kodakarensis)
chain: MIRRETFVDDILKEIREIIVQMVPREAGITDVEFEGPELVIYVKNPEAMMKDGELIKNLAKVLKKRISVRPDPDILLPPEKAEELIKQLVPPEAEITNISFDPSVGEVLIEARKPGLVIGKNGETLRLITQKVHWAPRVVRTPPIQSQTIYSIRSILQTESKDRRKFLRQVGRNIYRKSEYKSRWIRITGLGGFREVGRSALLVQTDESYVLVDFGVNIAALKDPTKAYPHFDAPEFRYVLDEGLLDAIIITHAALDHSGMLPYLFRYKLFDGPIYTTPPTRDLMTLLQQDFIEIQHMNGVEPLYRPKDIKEVIKHTITLDYGEVRDIAPDIRLTLHNAGHILGSSIVHLHIGNGLHNIAITGDFKFIPTRLFEPAVSRFPRLETLVMESTYGGSNDYQMPREEAEKRLIEVIHQTLKRGGKVLIPAMAVGRAQEIMMVLEEYARVGGIEVPIYLDGMIWEATAIHTAYPEYLSKHIREQIFHEGYNPFLNPIFKSVANSRERQDIIDSGEPAIIIATSGMLVGGPSVEYFKQLAPDPKNSIIFVSYQAEGTLGRQVQRGLREIPIVGEDGRTEVINVNMEVHTIDGFSGAADRRELMSYVARVRPRPERIITVHGEAHKCLDLSSSIHKKFGISTRAPNNLDAIRLK
notes: FttA (aCPSF, aCPSF1), Thermococcus kodakarensis; domains KH1 6-75, KH2 76-144, MβLa 198-428, βCASP 433-557, MβLb 576-639; residues 1-3 of FttA^prox not fitted in the map; Dimer in the structure (protomers FttA^prox and FttA^dist); also called FttA^prox; FttA^dist
binds: all assays above

B2: Tko Spt5 (natural protein, Thermococcus kodakarensis)
chain: MAEGKIFTVSVTVGQETTTANLIYSKAKTYNLPLYAILSPSKVKGYIFIEAPNKSAVEEAIRGIRHAKRVLPGEIPFSEIEHFLEEKPAVSGFEPGDIVELIAGPFKGEKAKVVRVDESKDEIVVELVSSVVPIPVTVRGEYVRLISKRQKE
notes: Spt5, Thermococcus kodakarensis; NGN domain and KOW domain; residues 1-3 not fitted in the map; Used as Spt4/5 (Spt4-Spt5 complex) in the biochemical assays; also called NusG/Spt5
binds: [1] | [4] | [5]
